Results taken from article PMC7862700.
Only a part is listed here, and it is no random draw. At the low end of the ranking the order means little.

These sequences were tested against T1, FLI1 (UniProt Q01543) (assay: DAPPL (digital affinity profiling via proximity ligation, sequencing)). Conditions: 10 mM Tris-HCl pH 7.5, 50 mM NaCl, 1 mM DTT, 4% glycerol, room temperature, 30 min; GST-TFs on glutathione beads, 16-mer random dsDNA library, 0.1% …; high values mean tight binding; double strand, one strand shown; scale: fold enrichment (6-mer frequency, TF over GST control).
T1 sequence: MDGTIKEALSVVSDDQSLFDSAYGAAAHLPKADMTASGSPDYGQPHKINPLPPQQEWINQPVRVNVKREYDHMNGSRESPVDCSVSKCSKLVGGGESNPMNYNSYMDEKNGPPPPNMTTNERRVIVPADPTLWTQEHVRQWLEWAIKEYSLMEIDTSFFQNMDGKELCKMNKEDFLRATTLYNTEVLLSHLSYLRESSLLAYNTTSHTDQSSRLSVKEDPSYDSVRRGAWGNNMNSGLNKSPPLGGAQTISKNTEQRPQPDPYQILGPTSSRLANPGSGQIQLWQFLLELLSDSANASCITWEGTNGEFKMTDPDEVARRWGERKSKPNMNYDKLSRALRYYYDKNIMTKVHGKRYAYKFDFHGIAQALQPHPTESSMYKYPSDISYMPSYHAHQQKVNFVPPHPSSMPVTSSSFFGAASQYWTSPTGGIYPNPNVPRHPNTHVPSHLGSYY

| Sequence | binding signal |
| --- | --- |
| CTGCGG | 1.23 |
| TTGGTA | 1.23 |
| TAACGC | 1.12 |
| TAGTAT | 1.25 |
| GAAGCG | 1.37 |
| TGGCTC | 1.4 |
| TGTATA | 1.08 |
| TTGTTA | 1.32 |
| CACGCG | 1.32 |
| CTGTAC | 1.28 |
| CGTTTC | 1.76 |
| GTGCTA | 1.11 |
| ACTGTT | 1.15 |
| ATAATG | 0.984 |
| CATACC | 1.03 |
| ACGTTG | 1.14 |
| GCTGTT | 1.04 |
| TGCTTA | 1.04 |
| TGCAGC | 0.986 |
| CCTCCT | 1.72 |

| Sequence | binding signal |
| --- | --- |
| TCAAAA | 1.12 |
| ATGTTG | 1.31 |
| CCACCG | 0.939 |
| TAGCTG | 1.29 |
| ATGTTT | 1.48 |
| TCCCGT | 1.24 |
| TTTGAC | 1.57 |
| AAGATG | 1.17 |
| TGTTAC | 1.49 |
| CGTAAA | 0.999 |
| GCTGCT | 1.32 |
| ACGATT | 1.44 |
| AACCCC | 1.08 |
| CAATGT | 0.991 |
| CGCGCC | 0.982 |
| CGATGG | 1.36 |
| GACTTT | 1.04 |
| CCAACT | 1.26 |
| GCATTT | 1.38 |
| TGATGA | 1.38 |

The sequences below were run against T2, ETV2 (UniProt O00321) in the same assay as above. Conditions: 10 mM Tris-HCl pH 7.5, 50 mM NaCl, 1 mM DTT, 4% glycerol, room temperature, 30 min; GST-TFs on glutathione beads, 16-mer random dsDNA library, 0.1% …; high values mean tight binding; double strand, one strand shown; scale: fold enrichment (6-mer frequency, TF over GST control).
T2 sequence: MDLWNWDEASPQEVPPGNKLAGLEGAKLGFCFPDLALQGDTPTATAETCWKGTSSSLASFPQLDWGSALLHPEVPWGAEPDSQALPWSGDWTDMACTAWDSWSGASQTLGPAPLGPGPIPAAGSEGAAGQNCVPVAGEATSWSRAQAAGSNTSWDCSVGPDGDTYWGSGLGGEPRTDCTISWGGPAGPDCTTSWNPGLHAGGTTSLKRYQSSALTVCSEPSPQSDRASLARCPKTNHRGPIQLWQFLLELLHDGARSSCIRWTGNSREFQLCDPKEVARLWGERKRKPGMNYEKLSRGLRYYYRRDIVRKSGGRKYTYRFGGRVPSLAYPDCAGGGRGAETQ

| Sequence | binding signal |
| --- | --- |
| CTGCGG | 1.25 |
| TTGGTA | 1 |
| TAACGC | 1.13 |
| TAGTAT | 1.34 |
| GAAGCG | 1.19 |
| TGGCTC | 1.61 |
| TGTATA | 1.04 |
| TTGTTA | 1.35 |
| CACGCG | 1.18 |
| CTGTAC | 1.39 |
| CGTTTC | 1.41 |
| GTGCTA | 0.962 |
| ACTGTT | 1.23 |
| ATAATG | 0.967 |
| CATACC | 1.16 |
| ACGTTG | 0.99 |
| GCTGTT | 1.1 |
| TGCTTA | 0.999 |
| TGCAGC | 1.12 |
| CCTCCT | 1.45 |

| Sequence | binding signal |
| --- | --- |
| TCAAAA | 1.23 |
| ATGTTG | 0.993 |
| CCACCG | 0.981 |
| TAGCTG | 1.15 |
| ATGTTT | 1.41 |
| TCCCGT | 1.29 |
| TTTGAC | 1.5 |
| AAGATG | 1.13 |
| TGTTAC | 1.58 |
| CGTAAA | 1.21 |
| GCTGCT | 1.25 |
| ACGATT | 1.24 |
| AACCCC | 1.18 |
| CAATGT | 0.997 |
| CGCGCC | 0.994 |
| CGATGG | 1.34 |
| GACTTT | 1.1 |
| CCAACT | 1.11 |
| GCATTT | 1.25 |
| TGATGA | 1.33 |

What follows are sequences tested against T3, ETV3L (UniProt Q6ZN32) in the same assay as above. Conditions: 10 mM Tris-HCl pH 7.5, 50 mM NaCl, 1 mM DTT, 4% glycerol, room temperature, 30 min; GST-TFs on glutathione beads, 16-mer random dsDNA library, 0.1% …; high values mean tight binding; double strand, one strand shown; scale: fold enrichment (6-mer frequency, TF over GST control).
T3 sequence: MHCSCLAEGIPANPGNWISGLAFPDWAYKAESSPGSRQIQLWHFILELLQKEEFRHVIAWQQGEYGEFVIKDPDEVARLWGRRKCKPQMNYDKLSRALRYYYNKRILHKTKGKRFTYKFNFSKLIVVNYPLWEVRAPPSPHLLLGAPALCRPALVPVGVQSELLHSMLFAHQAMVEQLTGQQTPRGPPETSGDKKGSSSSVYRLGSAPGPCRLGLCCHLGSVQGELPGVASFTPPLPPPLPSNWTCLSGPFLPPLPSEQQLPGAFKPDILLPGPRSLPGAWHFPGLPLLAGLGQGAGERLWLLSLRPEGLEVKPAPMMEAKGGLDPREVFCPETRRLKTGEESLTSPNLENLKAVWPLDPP

| Sequence | binding signal |
| --- | --- |
| CCACCG | 0.874 |
| AAGATG | 1.12 |
| CAATGT | 1.03 |
